# Laboratory results published in paper PMC7324386.
# These are yes or no findings as the source states them, for the method shown. Binding seen in cells or lysates may run through a third protein. These calls come from enrichment with a bait or labelling near it, and not all partners need be listed. For some of these results: No binding means not detected with the bait. For some of these results: Where a sequence is shown, tags or fusion partners need not be part of it.
# B1: UFD1B (protein, UniProt Q9SJV0 1-340)
# chain: MVLRFCCHLLTYSVSLLPPITMFFDGYHYHGTTFEQSYRCYPASFIDKPQLESGDKIIMPPSALDRLASLHIDYPMLFELRNAGIERVTHCGVLEFIAEEGMIYMPYWMMQNLLLQEGDIVRVRNVTLPKGTYVKLQPHTTDFLDISNPKAILETALRNYSCLTSGDSIMVPYNNKKYFIDIVETKPANAISIIETDCEVDFAPPLDYKEPERPTAPSAAKGPAKAEEVVDEPEPKFNPFTGSGRRLDGRPLAYEPAPASSSKGKQPVVANGNGQSSVASSSEKATRAQGKLVFGANGNRAPKEAAPKVGAAKETKKEEQEKKDEPKFQAFSGKKYSLRG
# B2: UFD1C (protein, UniProt Q8W570 1-311)
# chain: MFYDGYAYHGTTFEQTYRCYPSSFIDKPQIESGDKIIMPPSALDRLASLQIDYPMLFELRNASTDSFSHCGVLEFIAEEGVIYIPYWMMQNLLLQEGDMVRVRNVTLPKGTYVKLQPHTTDFLDIANPKAILETALRNYSCLTVGDSIMVPYNNKKYFIDIVEAKPSNGISIIETDCEVDFAPPLDYKEPERPVAPAPAKAKEVDVAEAEPKFNPFTGSGRRLDGRPLSYEPQPGAANSNGQSHPVASSSSSGSEKATQQNRGKLVFGSNVERSTKETTKVGAGKDRKQEEEAEKEAKFQAFSGKKYSLRG
# B3: PUX4 (protein, UniProt Q8RWU7 1-303)
# chain: MSSKDKKPSKPSSSRGGIRTLSDLNRRSGPDSDSDSDGPQEYYTGGEKSGMLVQDPSKKDDVDEIFNQARQLGAVEGPLEPPPSSRSFTGTGRLLSGENVPTGNQQPEPVVHNIVFWSNGFTIDDGPLRKLDDPENASFLESIRKSECPKELEPADRRAPVHVNLMRKEEKCPERQKRRVSFQGVGRTLGGSNEGSGSSSPVAPDSAPIPIQTEPAPSQSLVIDETVPTTSIQLRLADGTRLVAKFNHHHTVNDIRGFIDSSRPGASLNYQLQTMGFPPKPLTDLTQTIEEAGLANSVVLQKF
# B4: PUX5 (protein, UniProt Q7Y175 1-421)
# chain: MATETNENLINSFIEITSSSREEANFFLESHTWNLDAAVSTFLDNDAAAAAEPNPTGPPPPSSTIAGAQSPSQSHSPDYTPSETSPSPSRSRSASPSSRAAPYGLRSRGGAGENKETENPSGIRSSRSRQHAGNIRTFADLNRSPADGEGSDSDEANEYYTGGQKSGMMVQDPKKVKDVDELFDQARQSAVDRPVEPSRSASTSFTGAARLLSGEAVSSSPQQQQQEQPQRIMHTITFWLNGFTVNDGPLRGFSDPENAAFMNSISRSECPSELEPADKKIPVHVDLVRRGENFTEPPKPKNPFQGVGRTLGASGSGSSSAPQASSAPMNVAPAPSRGLVVDPAAPTTSIQLRLADGTRLVSRFNNHHTVRDVRGFIDASRPGGSKEYQLLTMGFPPKQLTELDQTIEQAGIANAVVIQKF
# Molecular target: T1, BioID2-NEAP1 (Arabidopsis thaliana) (UniProt Q9M9L3)
# T1 sequence: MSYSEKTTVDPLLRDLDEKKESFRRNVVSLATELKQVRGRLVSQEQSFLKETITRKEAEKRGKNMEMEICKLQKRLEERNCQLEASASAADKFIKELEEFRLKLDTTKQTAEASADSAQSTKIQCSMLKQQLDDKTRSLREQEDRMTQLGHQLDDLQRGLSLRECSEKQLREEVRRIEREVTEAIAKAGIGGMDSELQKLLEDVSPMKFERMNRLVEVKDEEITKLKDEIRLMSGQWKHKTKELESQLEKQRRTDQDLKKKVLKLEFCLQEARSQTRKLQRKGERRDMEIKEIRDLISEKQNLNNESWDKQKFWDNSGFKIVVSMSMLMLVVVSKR
# Experiment: proximity labelling; BioID2-tagged bait in 10-day-old transgenic Arabidopsis seedlings, 50 µM biotin for 16 h at room temperature, streptavidin-coated beads, label-free quantitative MS, ratiometric analysis against controls; the SUN1 bait also with MG132 treatment
row,Binder,binding
1,B1,binds
2,B2,binds
3,B3,binds
4,B4,binds

# Molecular target: T2, HA-BioID2-RHD3 (UniProt P93042)
# T2 sequence: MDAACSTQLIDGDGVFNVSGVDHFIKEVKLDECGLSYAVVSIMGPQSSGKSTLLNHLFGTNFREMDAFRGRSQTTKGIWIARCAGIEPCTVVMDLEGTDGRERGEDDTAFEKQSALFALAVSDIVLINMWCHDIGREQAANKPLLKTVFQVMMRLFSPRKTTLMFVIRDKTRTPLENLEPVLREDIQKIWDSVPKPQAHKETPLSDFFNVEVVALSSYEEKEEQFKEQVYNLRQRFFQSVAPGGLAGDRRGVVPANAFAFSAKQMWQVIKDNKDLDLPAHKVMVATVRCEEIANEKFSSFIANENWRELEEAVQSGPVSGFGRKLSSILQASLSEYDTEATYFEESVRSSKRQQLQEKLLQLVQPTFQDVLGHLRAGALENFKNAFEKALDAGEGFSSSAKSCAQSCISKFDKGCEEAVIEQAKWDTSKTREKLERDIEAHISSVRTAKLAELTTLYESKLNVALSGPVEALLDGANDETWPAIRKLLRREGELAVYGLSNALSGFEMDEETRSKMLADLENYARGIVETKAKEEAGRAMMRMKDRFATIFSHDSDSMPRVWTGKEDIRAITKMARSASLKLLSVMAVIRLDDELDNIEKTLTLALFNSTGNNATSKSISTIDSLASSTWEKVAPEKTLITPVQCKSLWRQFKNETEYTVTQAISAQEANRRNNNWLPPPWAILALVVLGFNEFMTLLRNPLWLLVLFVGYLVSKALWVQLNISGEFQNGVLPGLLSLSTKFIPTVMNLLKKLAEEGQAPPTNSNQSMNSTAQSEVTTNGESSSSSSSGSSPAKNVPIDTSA
# Experiment: as above
row,Binder,binding
1,B1,no binding
2,B2,no binding
3,B3,no binding
4,B4,no binding

# Molecular target: T3, HA-BioID2-WIT1 (Arabidopsis thaliana) (UniProt Q8L7E5)
# T3 sequence: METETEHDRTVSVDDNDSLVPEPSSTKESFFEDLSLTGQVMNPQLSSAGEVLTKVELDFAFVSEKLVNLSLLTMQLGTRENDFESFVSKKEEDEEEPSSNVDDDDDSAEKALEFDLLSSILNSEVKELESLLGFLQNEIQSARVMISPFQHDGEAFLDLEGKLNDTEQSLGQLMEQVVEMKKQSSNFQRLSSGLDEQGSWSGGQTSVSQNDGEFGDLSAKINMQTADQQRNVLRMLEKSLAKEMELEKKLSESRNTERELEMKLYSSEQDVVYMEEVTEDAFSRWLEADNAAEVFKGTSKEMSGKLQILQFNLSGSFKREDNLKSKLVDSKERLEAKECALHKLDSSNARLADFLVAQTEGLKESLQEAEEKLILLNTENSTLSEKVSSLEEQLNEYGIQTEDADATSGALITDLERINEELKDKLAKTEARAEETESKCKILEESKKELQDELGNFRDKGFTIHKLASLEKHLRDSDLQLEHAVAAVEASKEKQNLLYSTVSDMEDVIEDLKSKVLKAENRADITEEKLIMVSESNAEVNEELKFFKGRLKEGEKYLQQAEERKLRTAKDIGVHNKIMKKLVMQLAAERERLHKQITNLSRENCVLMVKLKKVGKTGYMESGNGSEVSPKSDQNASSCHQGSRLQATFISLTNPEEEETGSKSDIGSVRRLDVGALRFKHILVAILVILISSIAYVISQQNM
# Experiment: as above
row,Binder,binding
1,B1,no binding
2,B2,no binding
3,B3,no binding
4,B4,no binding

# Molecular target: T4, Nup93a-BioID2 (Arabidopsis thaliana) (UniProt O22224)
# T4 sequence: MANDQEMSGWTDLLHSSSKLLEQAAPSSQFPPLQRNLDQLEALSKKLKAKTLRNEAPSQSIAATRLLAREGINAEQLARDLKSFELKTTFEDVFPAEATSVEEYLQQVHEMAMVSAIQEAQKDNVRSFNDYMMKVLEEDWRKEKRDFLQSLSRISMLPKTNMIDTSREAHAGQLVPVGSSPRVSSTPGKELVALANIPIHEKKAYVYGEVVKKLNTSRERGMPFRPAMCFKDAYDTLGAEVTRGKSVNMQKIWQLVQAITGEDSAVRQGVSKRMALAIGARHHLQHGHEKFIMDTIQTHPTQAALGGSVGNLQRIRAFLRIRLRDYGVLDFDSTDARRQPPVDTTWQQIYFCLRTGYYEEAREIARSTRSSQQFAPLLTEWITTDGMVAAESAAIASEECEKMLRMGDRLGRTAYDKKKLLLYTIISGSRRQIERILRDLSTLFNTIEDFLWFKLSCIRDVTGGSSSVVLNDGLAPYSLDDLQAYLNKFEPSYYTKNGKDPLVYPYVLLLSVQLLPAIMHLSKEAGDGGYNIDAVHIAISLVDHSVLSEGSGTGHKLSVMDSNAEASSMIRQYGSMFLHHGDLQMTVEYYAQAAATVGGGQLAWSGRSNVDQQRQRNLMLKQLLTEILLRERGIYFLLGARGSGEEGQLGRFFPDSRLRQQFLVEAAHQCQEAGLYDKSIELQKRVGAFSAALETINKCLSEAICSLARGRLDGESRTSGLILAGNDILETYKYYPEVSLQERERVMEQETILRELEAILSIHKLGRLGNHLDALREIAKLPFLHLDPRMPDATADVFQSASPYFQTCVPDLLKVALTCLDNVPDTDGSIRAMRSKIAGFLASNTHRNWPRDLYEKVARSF
# Experiment: as above
row,Binder,binding
1,B1,no binding
2,B2,no binding
3,B3,no binding
4,B4,no binding
